{
  "source": "PubChem BioAssay AID1347075",
  "about": "(National Center for Advancing Translational Sciences (NCATS), 2019)",
  "note": "Hit rate of the full screen: of about 400,000 compounds, about 5,500 (1.4%) were called active. Inconclusive results, whose numbers are uncertain, are shown with a selection of clear calls. The call rests on the fitted dose curve; in most records, active means well fitted cell-killing curve with a large enough effect; inconclusive means small, poorly fitted or top-dose-only effect, or effect the other way; inactive means flat fitted curve, though single readings scatter. A potency beside an inconclusive call is a rough fit, not a confirmed value. On the % scale 0 is the no-effect control and ±100 the full control effect; potency means the concentration at half of the fitted maximal effect.",
  "data": [
    {"assay": "qHTS assay for MDR1-selective chemotherapeutics: Primary screen using the parental adenocarcinoma cell KB-3-1; further: nearly all actives have a fitted effect of over 60% in size", "details": "KB-3-1 viability, CellTiter-Glo ATP luminescence, 72 h; activity change, negative = cytotoxic: at 46.1 µM (top of the series)", "summary_of_the_method": "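Parental KB-3-1 adenocarcinoma cells in phenol-red-free DMEM with 10% FBS were pin-treated with compounds at several concentrations, incubated 72 h at 37 °C, and viability read by CellTiter-Glo luminescence; concentration-effect curves were fitted after normalization.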", "values": [
      {"smiles": "CC(=O)Nc1ccc(OC(=O)c2ccc(Cl)cc2)cc1", "Potency": "inactive"},
      {"smiles": "COc1ccc2nc(NC(=O)C3CCCN(S(=O)(=O)c4cccc5nonc45)C3)sc2c1", "note": "(stereo not drawn)", "Potency": "inactive"},
      {"smiles": "COc1ccc(OC)c(-n2c(=S)[nH]c3c(sc(=S)n3-c3ccccc3)c2=O)c1", "Potency": "inconclusive: 20.6 µM [rising, single point]"},
      {"smiles": "O=C(Nc1ccc(S(=O)(=O)N2CCCCCC2)cc1)c1ccc(Br)o1", "Potency": "inconclusive: 29.1 µM [cytotoxic, single point]"},
      {"smiles": "O=C(Nc1ccnn1C1CCNCC1)c1ccc2c(c1)OCO2", "Potency": "inconclusive: 20.6 µM [rising, partial curve, poor fit]"},
      {"smiles": "O=C(Nc1ccccc1C(=O)O)c1cccc(N2C(=O)c3ccccc3C2=O)c1", "Potency": "inconclusive: 16.4 µM [rising, single point]"},
      {"smiles": "O=C(N/N=C1\\C(=O)c2cccc3cccc1c23)c1ccc(O)cc1", "Potency": "inconclusive: 13 µM [rising, partial curve, poor fit]"},
      {"smiles": "COC(=O)C1CCN(C(=O)CN2C(=O)NC3(CCC(C)CC3)C2=O)CC1", "note": "(stereo not drawn)", "Potency": "inactive"},
      {"smiles": "C=CCNC(=O)/C(C#N)=C/c1c(N2CCN(c3ccccc3)CC2)nc2c(C)cccn2c1=O", "Potency": "inactive"},
      {"smiles": "CC1=C(C(=O)N(C(C)C)C(C)C)CC(CC(=O)NCCCCc2ccccc2)C(=O)N1Cc1ccc(C(C)(C)C)cc1", "note": "(stereo not drawn)", "Potency": "inconclusive: 29.1 µM [cytotoxic, single point]"},
      {"smiles": "O=C(NC(C(=O)c1ccccc1)c1ccccc1)c1ccccc1", "note": "(stereo not drawn)", "Potency": "inconclusive: 29.1 µM [rising, single point]"},
      {"smiles": "Cc1c(C(=O)N2CCOCC2)[nH]c2c1C(=O)CC(c1ccccc1Cl)C2", "note": "(stereo not drawn)", "Potency": "active: 18.4 µM"},
      {"smiles": "COc1ccccc1NC(=O)C1=C(C)Nc2nc3ccccc3n2C1c1ccccc1Cl", "note": "(stereo not drawn)", "Potency": "inactive"},
      {"smiles": "COc1ccccc1-c1ocnc1C(=O)N1CCN(C(=O)C(c2ccccc2)c2ccccc2)CC1", "Potency": "inconclusive: 23.1 µM [rising, single point]"},
      {"smiles": "COc1ccc([C@H]2CC(=O)C=C(c3cccc(Br)c3)C2)cc1OC", "Potency": "inconclusive: 29.1 µM [cytotoxic, single point]"},
      {"smiles": "O=C(Nc1ccc(F)cc1F)N1CCN(c2ncccn2)CC1", "Potency": "inactive"},
      {"smiles": "CCCCCCC1(C)NC(c2ccc3c(c2)OCO3)=CC(c2ccccc2O)N1", "note": "(stereo not drawn)", "Potency": "inconclusive: 29.1 µM [rising, single point]"},
      {"smiles": "CC1CCCCC1NC(=O)CSc1nnc(COc2ccc(Cl)cc2)o1", "note": "(stereo not drawn)", "Potency": "inconclusive: 29.1 µM [rising, partial curve, poor fit]"},
      {"smiles": "Cc1csc(NC(=O)CSc2nc(C)nc3c2c(=O)n(C)c(=O)n3C)n1", "Potency": "inconclusive: 20.6 µM [cytotoxic, single point]"},
      {"smiles": "O=C(CSc1ncc(-c2ccccc2)[nH]1)Nc1cccc(Br)c1", "Potency": "inactive"},
      {"smiles": "CCOCCc1nnc(NC(=O)C(=O)c2cc(C)n(-c3ccc(Cl)cc3)c2C)s1", "Potency": "inactive"},
      {"smiles": "COc1cc(-c2cc(NC=O)c3ncc(-c4ccccc4)n3c2)cc(OC)c1OC", "Potency": "inactive"},
      {"smiles": "Cc1cc([N+](=O)[O-])ccc1NC(=O)c1csc(C)c1C", "Potency": "inconclusive: 29.1 µM [cytotoxic, single point]"},
      {"smiles": "CNc1nc(Cl)c(SC)c(N2CCOCC2)n1", "Potency": "inconclusive: 29.1 µM [cytotoxic, single point]"},
      {"smiles": "Cc1cccc(C)c1OCCCCn1cnc2ccccc2c1=O", "Potency": "inconclusive: 18.4 µM [cytotoxic, single point]"},
      {"smiles": "N#C/C(=C/c1ccc2c(c1)OCO2)C(=O)Nc1ccc(O)cc1", "Potency": "inconclusive: 16.4 µM [cytotoxic, partial curve, poor fit]"},
      {"smiles": "COc1cccc(NC(=O)c2ccc(CN3CCN(c4ccccc4)CC3)cc2)c1", "Potency": "active: 8.91 µM"},
      {"smiles": "Cc1cccc(C)c1NC(=O)C1(C)CCC(=O)N1CCCn1ccnc1", "note": "(stereo not drawn)", "Potency": "inactive"},
      {"smiles": "Cc1cc(-c2nn(-c3ccccc3F)cc2CN2CCCC(O)C2)c(C)s1", "note": "(stereo not drawn)", "Potency": "inactive"},
      {"smiles": "COc1cccc(C(=O)Nc2ccc3[nH]c(=O)[nH]c3c2)c1OC", "Potency": "active: 1.16 µM"},
      {"smiles": "CCN(CCCNC(=O)c1cc2c(=O)n(CC)c3ccccc3c2s1)Cc1ccccc1", "Potency": "inactive"},
      {"smiles": "CCCN(CCC)C(=O)COc1cc(=O)n(CC)c2ccccc12", "Potency": "inactive"},
      {"smiles": "COc1cc2nc(NC(=O)c3ccc(S(=O)(=O)N4CCc5ccccc54)cc3)sc2cc1OC", "Potency": "inconclusive: 20.6 µM [cytotoxic, single point]"},
      {"smiles": "NC(CS(=O)O)C(=O)O", "note": "(stereo not drawn)", "Potency": "inactive"},
      {"smiles": "CCOc1ccc2[nH]c(=O)c(CN(CCO)C(=O)CC)cc2c1", "activity change, negative = cytotoxic": "inconclusive: 12.6%"},
      {"smiles": "CC(/C=C1\\SC(=S)N(C(C(=O)O)c2ccccc2)C1=O)=C\\c1ccccc1", "note": "(stereo not drawn)", "Potency": "inconclusive: 32.6 µM [rising, single point]"},
      {"smiles": "CCOc1ccccc1C(=O)Nc1c[nH]c(=O)[nH]c1=O", "Potency": "inconclusive: 14.6 µM [cytotoxic, partial curve, poor fit]"},
      {"smiles": "CN(NC(=O)c1ccccc1F)c1nc(C(F)(F)F)nc2ccccc12", "Potency": "inconclusive: 0.82 µM [cytotoxic, full curve, poor fit]"},
      {"smiles": "Cc1cc(/C(N)=N/OC(=O)c2ccccc2Cl)no1", "Potency": "inconclusive: 16.4 µM [rising, single point]"},
      {"smiles": "CCOc1ccc(CNC(=O)C2CCN(c3nc4ccccc4nc3C(F)(F)F)CC2)cc1OC", "Potency": "inactive"},
      {"smiles": "O=C1C(c2ccccc2)NC(=S)N1C1CCCCC1", "note": "(stereo not drawn)", "Potency": "inactive"},
      {"smiles": "Clc1ccc(C2[C@H]3CN(Cc4cccnc4)[C@H](c4ccccc4)C34CC2(c2ccccc2)C4)cn1", "note": "(stereo partly drawn)", "Potency": "inconclusive: 29.1 µM [cytotoxic, single point]"},
      {"smiles": "Nc1cc(-c2ccc(Cl)cc2)nn1-c1ccccc1", "Potency": "inactive"},
      {"smiles": "CC1CC(=O)Nc2ccccc2N1C(=O)COc1cc(Cl)ccc1Cl", "note": "(stereo not drawn)", "Potency": "inactive"},
      {"smiles": "CCC(=O)NC(c1ccc(C)cc1)c1ccc2cccnc2c1O", "note": "(stereo not drawn)", "Potency": "inconclusive: 2.06 µM [cytotoxic, full curve]"},
      {"smiles": "COc1ccc(CCNC(=O)c2cnc3sc(N4CCOCC4)nn3c2=O)cc1", "Potency": "inactive"},
      {"smiles": "COc1ccc(-n2ccn3c(CCC(=O)N4CCN(c5cccc(C)c5C)CC4)nnc3c2=O)cc1", "Potency": "inconclusive: 16.4 µM [cytotoxic, single point]"},
      {"smiles": "Cc1nc2ccccc2cc1C(=O)NCc1ccccc1", "Potency": "inconclusive: 16.4 µM [cytotoxic, single point]"},
      {"smiles": "CC(=O)c1ccc(NC(=O)c2cnn3c2NC(=C2CC2)C=C3C(F)F)cc1", "Potency": "inconclusive: 25.9 µM [rising, partial curve, poor fit]"},
      {"smiles": "CC(=O)Nc1ccc(NC(=O)c2ccc(-c3ccnn3C)c3ccoc23)cc1", "Potency": "inactive"},
      {"smiles": "Clc1ccc2nc(C3CCCCC3)c(Cc3ccccc3)n2c1", "Potency": "inactive"},
      {"smiles": "Cc1cc([N+](=O)[O-])ccc1NC(=O)C[n+]1ccc(N(C)C)cc1", "Potency": "inconclusive: 29.1 µM [cytotoxic, single point]"},
      {"smiles": "CN1CCN(c2ccc(NC(=O)c3ccc(-c4ccc(Br)cc4)o3)cc2)CC1", "Potency": "inconclusive: 29.1 µM [cytotoxic, single point]"},
      {"smiles": "COC(=O)N1C(=O)[C@](c2ccccc2)(C(C)C)N1C(=O)OC", "Potency": "inactive"},
      {"smiles": "C[C@H]1Cn2cnc(C(=O)Nc3cccc(Cl)c3)c2C(=O)N1", "Potency": "inconclusive: 14.6 µM [cytotoxic, partial curve, poor fit]"},
      {"smiles": "COc1ccc(-n2nc3ccc(NC(=O)c4cccc(OCCC(C)C)c4)cc3n2)cc1", "Potency": "inconclusive: 23.1 µM [cytotoxic, partial curve, poor fit]"},
      {"smiles": "COc1cc2c(NC3CCN(C)CC3)nc(N3CCCN(C)CC3)nc2cc1OCC1CCNCC1", "Potency": "inactive"},
      {"smiles": "CCOC(=O)c1cnc2ccc(OC)cc2c1Nc1ccc(OCc2ccccc2Cl)cc1", "Potency": "inconclusive: 18.4 µM [cytotoxic, single point]"},
      {"smiles": "CSc1nc2ccccc2s1", "activity change, negative = cytotoxic": "inconclusive: 0%"},
      {"smiles": "CC(OC(=O)c1ccc(-n2cnnn2)cc1)C(=O)N(C)c1ccccc1", "note": "(stereo not drawn)", "Potency": "inconclusive: 16.4 µM [rising, single point]"},
      {"smiles": "CCn1cnc2c(Nc3cc(F)cc(F)c3)nc(C#N)nc21", "Potency": "inconclusive: 16.4 µM [cytotoxic, single point]"},
      {"smiles": "COc1ccc(C)cc1NC(=O)c1nnn(Cc2cccc(Br)c2)c1N", "Potency": "inconclusive: 13 µM [cytotoxic, partial curve, poor fit]"},
      {"smiles": "COc1ccccc1CNS(=O)(=O)c1c(C)cc(C)cc1C", "Potency": "inactive"},
      {"smiles": "O=C(CSc1nc2ccccc2s1)Nc1cc(S(=O)(=O)N2CCOCC2)ccc1Cl", "Potency": "inactive"},
      {"smiles": "CCOC(=O)C1CCN(C(=O)c2ccc3c(c2)OCCO3)CC1", "Potency": "inactive"},
      {"smiles": "O=C1N/C(=N\\N=C\\c2cccs2)SC1Cc1ccc(Cl)c(Cl)c1", "note": "(stereo not drawn)", "Potency": "inactive"},
      {"smiles": "CCN(C(=O)CSc1nc2ccccc2n1CC(=O)N(C)C1CCCCC1)c1ccccc1", "Potency": "inactive"},
      {"smiles": "CCOC(=O)N1CCN(C(=O)c2cccc(N3C(=O)NC4CC3(C)Oc3ccc(Cl)cc34)c2)CC1", "note": "(stereo not drawn)", "Potency": "inconclusive: 25.9 µM [cytotoxic, partial curve, poor fit]"},
      {"smiles": "CC1=CC2=NC(=O)/C(=C\\c3cc(C)n(-c4ccccc4F)c3C)C(=N)N2O1", "Potency": "inactive"},
      {"smiles": "CC(C(=O)Nc1ccccc1-c1ccccc1)N(C)Cc1nc2ccccc2c(=O)[nH]1", "note": "(stereo not drawn)", "Potency": "inconclusive: 29.1 µM [cytotoxic, single point]"},
      {"smiles": "CCCCCC(=O)N1C[C@H](n2cc(-c3ccc(F)cc3)nn2)[C@@H](O)C[C@@H]1c1ccc(Cl)cc1", "Potency": "inconclusive: 29.1 µM [cytotoxic, single point]"},
      {"smiles": "O=C(/C=C/c1cccs1)Nc1sc2c(c1C(=O)O)CCCC2", "Potency": "inconclusive: 29.1 µM [cytotoxic, single point]"},
      {"smiles": "CCN(CCCNC(=O)Cn1ncc2c([nH]c3ccccc32)c1=O)Cc1ccccc1", "activity change, negative = cytotoxic": "inconclusive: -16.2%"}
    ]}
  ]
}
